# Structures can show the parent of a compound that is named as a salt.
# Assays:
# [1] = tested on: intoxication caused by histamine aerosol; assay: Histamine aerosol intoxication in guinea pigs; format: in vivo; settings: same test conditions and doses, 1 hour after administration; control 55 (52-58) seconds; p of at least 0.05
# Acute toxicity in mice = settings: mouse, in vivo
structure (smiles),measurement,setting,value
"CN(C)CCOC(c1ccccc1)c1ccccc1 [dimedrol, diphenhydramine hydrochloride, reference compound]",latent period of intoxication,[1],173 (264-82) seconds
same,LD50,Acute toxicity in mice; iv,39 mg/kg
same,LD50,Acute toxicity in mice; po,210 mg/kg

# Source: US4117139A, “Medicated compound for treating allergic diseases” (priority 1973, dated 1978)
